Source: patent publication US20110092488A1, “Quninoline Methanol Compounds for the Treatment and Prevention of Parasitic Infections” (priority 2005, published 2011)

Test system: primary rat forebrain neurons
Test: Neurocytotoxicity assay (MTT)
Protocol: The neurocytotoxicity assay of AAQMs was conducted as per Dow et al.; The antimalarial potential of 4-quinolinecarbinolamines may be limited due to neurotoxicity and cross-resistance in mefloquine-resistant Plasmodium falciparum strains; Chemother. (48) 2624-2632 (2004) and is incorporated herein, by reference. This assay utilizes primary rat forebrain neurons and is a multi-endpoint screen. […] The AAQMs outlined in Table 1 were screened at 10, 100 and 1000 μM in triplicate, and the reduction in viability observed was determined using the 3-(4,5-dimethylthiazol-2-yl)-2,5-diphenyltetrazolium bromide (MTT) assay as per Dow et al., discussed above. Approximate IC50 values were calculated on the basis of the level of inhibition observed at each concentration. […] IC50s were calculated using Prism. […] Neurons were exposed to DNQX (100 μM) or magnesium (12 mM) for 5 min, followed by mefloquine (25 μM) or WR069878 (250 μM) for 20 min after which reduction in cell viability was determined. […] The effects of mefloquine and WR069878 on neuronal calcium homeostasis were assessed utilizing confocal microscopy as per Dow et al, as discussed in Antimicrob Agents Chemother. […] Subsequent changes in neuronal calcium homeostasis were recorded as fluctuations in the emitted fluorescence of fluo-3-complexed calcium at 530 nm (excitation was 488 nm). […]

OC(c1cc(C(F)(F)F)nc2c(C(F)(F)F)cccc12)C1CCCCN1 (centres unmarked) [Mefloquine, reference compound]
Therapeutic index relative to mefloquine: 1.0
Therapeutic index (*1000) (neuron IC50 over TM91C235 IC50, *1000): 0.57
